# Measurements published in US20060177440A1.
# Changes are numbered by the printed parent chain. No constants are given. Whether binding was seen depends on the method and setting. Binding can be weak; no strength is given.
# B1: SH37 (Fab, V domains shown)
# VH: EVQLLESGGGVVQPGRSLRLSCEASKFTLYNYGMHWVRQAPGKGLEWVAFIWFDGSNKYYEDSVKGRFTVSRDNSKNTLYLQMNSLRAEDTAVYYCARELSKKVALSRYYYYMDVWGQGTTVTVSS
# VL: AELQDPVVSVALGQTVKITCQGDSLRKYYASWYQQKPGQAPVLVFYARNSRPSGIPDRFSGSNSGTTASLTIAGARAEDEADYYCHSRDSNGHHRVFGGGTKLTVL
# B2: SH20 (Fab, V domains shown)
# VH: VQLLEESGGGVVQPGRSLRLSCAASGFTFRSYAMHWVRQAPGKGLEWVAVISYDGSTIYYADSVKGRFTISRANSKNTLFLQMNSLRTEDTAVYYCTRGGFYYDSSGYYGLRHYFDYWGQGTLVTVSS
# VL: AELTQSPFSLSASVGDRVTITCRASQSISRSLNWYQHKPGEAPKLLIYAASSLQRGVPPRFSGSGSGTDFTLTISSLQPEDFATYFCQQSVRIPYSFGQGTKLEIKR
# B3: SH08 (Fab, V domains shown)
# VH: EVQLLESGGGVVQPGRSLRLSCAVSGFTLTNYGMHWVRQAPGKGLEWVAHVWYDGSKTEYADSVKGRFAVSRDKSKNTLFLQMNSLTAEDTAIYYCARERREKVYILFYSWLDRWGQGTLVTVSS
# VL: AELTQSPSSLAASVGDRVTITCRANQTIRTSLNWYQQRPGKAPNLLIYGASRLHSGVPSRFSGGISGADFTLTISSLQPEDFATYYCQQTYGYSRTFGQGTKVDIKR
# B4: SH30 (Fab, V domains shown)
# VH: B3 VH
# VL: AELTQSPSSLSASVGDRVTITCRASQSIRRSLNWYQQSPGKTPKLLIYAASSLQSGVPSRFSGSGSGTDFTLTISSLQPEDFATYYCQQSYSTLTFGGGTKVEIKR
# B5: SH12 (Fab, V domains shown)
# VH: EVQLLESGGGVVQPGRSLRLSCAASGFTFSTYGMHWVRQAPGKGLEWVAVIWFDGSNKEYADSVKGRFTVSRDNSKNTLYLQMNSLRAEDTAVYYCAREEVVRGVILWSRKFDYWGQGTLVTVSS
# VL: AELTQSPFSLSASVGDRVTITCRASHNIYRSLNWFQHKPGEAPKLLVYAASSLQRGVPTRFSGSGSGTDFTLTISSLQPEDSATYFCQQSVTFPYTFGQGTKLEIRR
# B6: SH21 (Fab, V domains shown)
# VH: B5 VH
# VL: AELTQSPSFLSASVGDRVTITCRASQGIRSYLAWYQQKPGKAPKLLIYAASTLQSGVPSRFSGSGSGTEFTLTIASLQPDDFATYYCQQLNNYPPFTFGPGTKVDIKR
# B7: SH25 (Fab, V domains shown)
# VH: VQLLEESGGGVVQPGRSLRLACAASGFSFRSYGMHWVRQAPGRGLEWVAFTWFDGSNKYYVDSVKGRFTISRDNSKNTLYLEMNSLRVDDTAVYYCAREAPMLRGISRYYYAMDVWGPGTTVTVSS
# VL: AELTQSPSSLSASVGDRVTITCRASQNIRRSLNWYQQKPGKAPKLLIYAASSLQSGVPSRFSGSGSGTDFTLTISSLQPEDFATYYCQQSSNTPWTFGQGTKVEIKR
# B8: SH47 (Fab, V domains shown)
# VH: EVQLLESGGGVVQPGRSLRLSCAASGFSFSNYAMHWVRQAPGKGLEWVAVTSFDGSIKDYADSVKGRFTISRDNSKNTLYLQMNSLRDEDTAVYYCARERGMIVVVRRRNAFDIWGQGTMVTVSS
# VL: B7 VL with N27S, R29S, R30N, S31Y, K44N, S91Y, N92S, T93Y, W95R, K106R
# B9: SH28 (Fab, V domains shown)
# VH: EVQLLESGGGGVQPGRSLRLSCAASGFTFNSYAMYWVRQPPGKGLEWVAAIWYDGSNKEYADFVKGRFTISRDNSKNTLSLQMNSLRDEDTAVYYCAREANLLRGWSRYYYGMDVWGQGTTVTVSS
# VL: B7 VL with S25D, Y35F, N92S, Q99R
# B10: SH46 (Fab, V domains shown)
# VH: VQLLEESGGGVVQPGRSLRLSCAASGFTFSSYGMHWVRQAPGRGLEWVALIWYDGGNKEYADSVKGRFSISRDNSKNTLYLQVNSLRADDTAVYYCARDQRAAAGIFYYSRMDVWGQGTTVTVSS
# VL: AELTQSPSSLSASVGDRVTITCRASQYISSYLNWYQQKPGKAPNLLIYAASSLQSGVPSRFSGSGSGTDFTLTISSLQPEDFATYYCQQTYSSPSTFGPGTKVDIKR
# B11: SH48 (Fab, V domains shown)
# VH: EVQLLESGGGVVQPGRSLRLSCAASGFSFSSYGMHWVRQAPGKGLEWVAVISYDGTNKYFADSVKGRFTISRDNSKKTLYLQMTSLRPEDTAVYFCANLRGEVTRRASVPLDIWGQGTMVTVSS
# VL: B10 VL
# B12: SH17 (Fab, V domains shown)
# VH: EVQLLESGGGLVQPGGSLRLSCGASGIPFVSSWMAWVRQAPGKGLEWVANIKQDGSKKNYVDSVEGRFTISRDNAKNSLYLQMDSLRAEDTRIYYCARDSLTCFDYWGQGALVTVSS
# VL: AELQDPVVSVALGQTVRITCQGDGLRSYYASWYQQKPGQAPKLVMYGRNNRPSGIPGRFSGSSSGQTAALTITGTQAEDEADYYCQSRATSGNPVVFGGGTKLTVL
# B13: SH18 (Fab, V domains shown)
# VH: EVQLLESGGGVVQPGRSLRLSCAASGFTFRSYAMHWVRQAPGKGLEWVAATAYDGKNKYYADSVKGRFTISRDNSMNTLFLQMNSLRAEDTAVFYCARGGFYYDSSGYYGLRHYFDSWGQGTLVTVSS
# VL: AELTQSPSSLSASVGDRVTITCRASQSISIALNWYQQRPGKAPKLLMYATSTLQSGVPSRFSGSGSGTDFTLTISSLQPEDFATYYCQQYYNKPTFGPGTKVDIKR
# B14: SH26 (Fab, V domains shown)
# VH: EVQLLESGGGVVQPGRSLRLSCVVSGFTFNNYGMHWVRQAPGKGLEWVAVIWFDGSNKYYADSVKGRFTISRDNSKNTLYLQMNSLRAEDTAVYYCARENQIKLWSRYLYYFDYWGQGTLVTVSS
# VL: AELTQSPSSLSASVGDRVTITCRASQSISSYLNWYQQKPGKAPKLLIYAASSLQSGVPSRFSGSGSGTDFTLTISSLQPEDFATYYCQQSYSFRRYSFGQGTKLEIKR
# B15: SH34 (Fab, V domains shown)
# VH: B11 VH
# VL: B14 VL with S52G, F93T, R94P, R95P, S97T
# B16: E1/M3 (Fab, V domains shown)
# VH: EVQLLESGGGLVKPGGSLRLSCAASGFTFSSYSMHWVRQAPGKGLEWVSSISNSNTYIYYADAVKGRFTISRDNAKNSLYLQMNSLRAEDTAVYYCARDSRYSNFLRWVRSDGMDVWGQGTTVIVSS
# VL: AELTQPPSASGTPGQRVTISCSGSSSNIGSNYVYWYQQLPGTAPKLLIYRNNQRPSGVPDRFSGSKSGTSASLAISGLRSEAEADYYCAAWDDSLSAVVFGGGTKLTVLL
# Target: partial Rh(D) antigen, D category IVa (human)
# Experiment: Fab/phage agglutination (anti-M13)
row,binding,Binder
1,binds,B1
2,binds,B2
3,binds,B3
4,binds,B4
5,binds,B5
6,binds,B6
7,no binding,B7
8,no binding,B8
9,no binding,B9
10,binds,B10
11,no binding,B11
12,no binding,B12
13,binds,B13
14,binds,B14
15,no binding,B15

# Target: partial Rh(D) antigen, D category V (human)
# Experiment: Fab/phage agglutination (anti-M13)
row,binding,Binder
1,no binding,B1
2,binds,B2
3,binds,B3
4,binds,B4
5,binds,B5
6,binds,B6
7,binds,B7
8,binds,B8
9,binds,B9
10,no binding,B10
11,no binding,B11
12,no binding,B12
13,no binding,B13
14,no binding,B14
15,no binding,B15

# Target: partial Rh(D) antigen, D category VII (human)
# Experiment: Fab/phage agglutination (anti-M13)
row,binding,Binder
1,binds,B1
2,no binding,B2
3,binds,B3
4,binds,B4
5,binds,B5
6,no binding,B6
7,binds,B7
8,binds,B8
9,binds,B9
10,no binding,B10
11,binds,B11
12,binds,B12
13,no binding,B13
14,no binding,B14
15,binds,B15

# Target: partial Rh(D) antigen, D category III (human)
# Experiment: Fab/phage agglutination (anti-M13)
row,binding,Binder
1,binds,B1
2,no binding,B2
3,binds,B3
4,binds,B4
5,binds,B5
6,binds,B6
7,binds,B7
8,binds,B8
9,binds,B9
10,no binding,B10
11,binds,B11
12,binds,B12
13,no binding,B13
14,binds,B14
15,binds,B15

# Target: partial Rh(D) antigen, D category VI (human)
# Experiment: Fab/phage agglutination (anti-M13)
row,binding,Binder
1,no binding,B1
2,no binding,B2
3,no binding,B3
4,no binding,B4
5,binds,B16
6,no binding,B5
7,no binding,B6
8,no binding,B7
9,no binding,B8
10,no binding,B9
11,no binding,B10
12,no binding,B11
13,no binding,B12
14,no binding,B13
15,no binding,B14
16,no binding,B15

# Target: partial Rh(D) antigen, D category IVb (human)
# Experiment: Fab/phage agglutination (anti-M13)
row,binding,Binder
1,no binding,B1
2,binds,B2
3,binds,B3
4,binds,B4
5,binds,B5
6,no binding,B6
7,no binding,B7
8,no binding,B8
9,no binding,B9
10,binds,B10
11,no binding,B11
12,no binding,B12
13,binds,B13
14,no binding,B14
15,no binding,B15
